From PubChem BioAssay AID493014 (National Center for Advancing Translational Sciences (NCATS), 2011) come the findings set out here.

The assay in a line: qHTS Assay to Find Inhibitors of Chronic Active B-Cell Receptor Signaling. The conditions noted are these: ABC-DLBCL IkBa-CBG/CBR reporter, luminescence ratio (green luciferase fused to IkBa over red control in TMD8 lymphoma cells), 4 h. Summed up: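 Compounds up to 46 uM were incubated four hours with TMD8 cells whose green CBG68 luciferase is fused to IkappaBalpha; red CBR luminescence normalised the signal, and concentration-effect curves were fitted to fusion, red and ratio data.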

[1] abbreviates: measured here: CBR red luminescence, cell number.
[2] abbreviates: measured here: IkBa-CBG green luminescence.

One may read the AC50 as the midpoint of the concentration-response curve, whichever way the signal moves.

Molecules are shown by their SMILES. Some of the results follow. These are further read-outs of the screen, such as a control signal, another cell line or another target. No call is given for them. Most of these compounds were active or inconclusive in the main read-out, so they are no random draw. Potencies come from curve fits of mixed quality, noted in brackets.

With `Cn1[nH]c(CSc2ccc(Cl)cc2)cc1=O`, the AC50 under setting [1] is 15.8 µM [falling, partial curve, poor fit]. Regarding `Cc1cccc2cc(COC(=O)COc3ccccc3)c(=O)[nH]c12`, under setting [1], the AC50 is 0.112 µM [falling, full curve, poor fit]. As for `CC(=O)c1ccc(NC(=O)CCNS(=O)(=O)c2ccccc2F)cc1`, the AC50 under setting [1] is 12.6 µM [rising, partial curve, poor fit]. With `CC(=O)Oc1ccc(OC(C)=O)c(SCCCCCCl)c1`, under setting [1], the AC50 was 35.5 µM [falling, single point]. As to `COCCNC(=O)c1cc(-c2ccccc2OC)on1`, the AC50 under setting [1] was 3.98 µM [falling, partial curve]. With `COC(=O)Cc1[nH]n(-c2nc3ccccc3s2)c(=O)c1C(C)=O`, the AC50 under setting [1] is 16.4 µM [falling, partial curve, poor fit]. On to `COc1ccc(C(CNC(=O)c2cccc(S(=O)(=O)Nc3ccc(C)cc3)c2)N2CCCCC2)cc1` (stereo not drawn), for which, under setting [1], the AC50 is 16.4 µM [falling, single point]. On the same count and under the same terms, to `O=c1[nH]cccc1-c1nc2ccccc2[nH]1` belongs 1 µM [falling, full curve, poor fit]. For the molecule `O=C(CNC(=O)c1ccccc1Cl)c1ccccc1`, under setting [1], the AC50 is 25.1 µM [falling, single point].

With `CN1Cc2ccccc2N(CC(=O)NCc2ccccc2)C1=O`, the AC50 under setting [1] is 35.5 µM [falling, single point]. Same read-out and setting: to `O=C(NC1CCCCC1)c1c(O)nc2sccn2c1=O` belongs 8.2 µM [falling, partial curve, poor fit]; to `CC1C/C(=C/c2ccncc2)C(=O)/C(=C/c2ccncc2)C1` (stereo not drawn), 28.2 µM [falling, single point].

Take `CCOc1ccc(C(=O)c2cc3ccc(O)cc3oc2=O)cc1`: the AC50 under setting [1] was 14.1 µM [falling, single point]. The same measure, in the same setting: then `NCCCC(=O)N1c2ccccc2Sc2ccc(Cl)cc21`, with 35.5 µM [falling, single point]; and `CCOC(=O)C1=CN(Cc2cccc(F)c2)S(=O)(=O)N(C)C1c1ccc(F)c(Cl)c1` (stereo not drawn), with 14.6 µM [falling, partial curve, poor fit]; and `O=C(N/N=C/c1cccs1)c1ccc2c(c1)OCO2`, with 20.6 µM [falling, single point]. On the same count and under the same terms, to `Cc1ccc(NC(=O)COC(=O)c2ccc3c(c2)NC(=O)C2CCCN32)cc1` (stereo not drawn) belongs 32.6 µM [falling, single point]. Still for that read-out and setting: then `CCN(c1ccccc1)S(=O)(=O)c1ccc(N)c(OC)c1`, with 0.0326 µM [falling, full curve, poor fit]. As for `COc1cc(-c2noc(C)c2-c2ccc3[nH]ccc3c2)cc(OC)c1OC`, the half-maximal activity concentration (AC50) runs as follows: under setting [1], 11.2 µM [rising, partial curve]; under setting [2], 7.08 µM [falling, partial curve].

As for `O=C1CCNc2ccc(-c3ccccc3)cc21`, the half-maximal activity concentration (AC50) under setting [1] is 6.51 µM [rising, single point]. Same read-out and setting: to `COc1ccc2[nH]c(O)c(N=NC(=O)Cc3cccs3)c2c1` belongs 35.5 µM [falling, single point]. Still for that read-out and setting: then `Cc1cccc2cc(/C=N/NC(=O)[C@H]3C[C@@H]3c3ccccc3)c(Cl)nc12`, with 3.16 µM [falling, single point]; and `O=C(NNC(=S)NCc1ccco1)c1ccc(Cl)s1`, with 35.5 µM [falling, single point].

As for `O=C(c1ccccc1)c1ccc2nc[nH]c2c1`, the AC50 under setting [1] is 29.1 µM [falling, single point]. Take `CCCN(CCC)Cc1cc(=O)oc2cc3c(cc12)CCC3`: the AC50 under setting [1] was 17.8 µM [rising, single point].

For the molecule `O=C(c1cccnc1)N1N=C(C2CCCCC2)CC1(O)C(F)(F)F` (stereo not drawn), the AC50 under setting [1] was 10 µM [falling, partial curve]. Still for that read-out and setting: then `CCOC(=O)c1c(C)oc2c1c(C(c1cccnc1)N1CCCCC1)c(O)c1ccccc12` (stereo not drawn), with 29.1 µM [falling, single point]; and `O/N=C(\c1ccc(Cl)cc1)c1ncc(C(F)(F)F)cc1Cl`, with 6.51 µM [rising, full curve, poor fit]; and `Cc1cccc(NC(=O)CN2CCN(C(=O)c3ccc(-c4nc5ccccc5s4)o3)CC2)c1C`, with 13 µM [rising, partial curve, poor fit]. As for `O=C(Cc1cccc2ccccc12)Nc1ccc(OC(F)F)c(Cl)c1`, the AC50 under setting [1] is 8.2 µM [rising, partial curve, poor fit]. As for `COc1cccc(-c2nc(N3CCCC3)c3ccccc3n2)c1O`, the AC50 under setting [1] is 0.562 µM [falling, full curve, poor fit]. `COCCNS(=O)(=O)c1ccc2c(c1)n(C)c(=O)n2C`: under setting [1], the AC50 was 0.103 µM [falling, full curve].

Consider `Cc1ccc2nc3n(c(=O)c2c1)-c1cc(Cl)ccc1C(=O)NC3Cc1ccc(O)cc1` (stereo not drawn), for which the AC50 under setting [1] is 10.3 µM [rising, partial curve, poor fit]. As to `O=C1CCN(C(=O)/C=C/c2ccccc2)c2ccccc21`, the AC50 under setting [1] was 12.6 µM [rising, partial curve, poor fit]. Still for that read-out and setting: then `Cc1nc2ccccn2c1C(=O)NNC(=S)Nc1ccc(Cl)cc1`, with 8.2 µM [rising, partial curve, poor fit]. Still for that read-out and setting: to `COCc1cc(Sc2ccc(Cl)cc2)nc(C)n1` belongs 28.2 µM [rising, single point]. Consider `COc1ccccc1N1CCN(C(=O)Cn2nnc(-c3ccncc3)n2)CC1`, for which the AC50 under setting [1] is 35.5 µM [rising, single point]. Same read-out and setting: to `c1ccc(N2CCN(c3ccccc3)C2c2cccs2)cc1` belongs 14.6 µM [falling, partial curve, poor fit].

Take `CCOCCCn1c(=NC(=O)c2cccs2)c(C#N)cc2c(=O)n3ccccc3nc21`: the AC50 under setting [1] is 12.6 µM [falling, single point]. Turning to `COc1ccc(N(CC(=O)NC2CCCC2)C(=O)Cn2nnc(-c3ccc(OC)c(OC)c3)n2)c(OC)c1`, the AC50 runs as follows: under setting [1], 0.631 µM [rising, partial curve, poor fit]; under setting [2], 0.631 µM [falling, partial curve, poor fit]. As for `Cc1sc(-c2ccccn2)nc1OC(=O)c1ccc(F)cc1F`, under setting [1], the AC50 was 8.91 µM [falling, partial curve, poor fit].

Take `COc1cc(OC)cc(-c2nc3cc(C)ccc3o2)c1`: the AC50 under setting [1] is 1.46 µM [rising, full curve, poor fit]. On the same count and under the same terms, to `CC(C)C1N=C(c2ccc3c(c2)OCO3)CC(c2ccccc2O)N1` (stereo not drawn) belongs 29.1 µM [falling, single point]. Turning to `CCOC(=O)C1=C(C)NC(C)=C(C(=O)OCC)C1/C=C/c1ccccc1`, under setting [2], the AC50 was 11.6 µM [falling, partial curve]. As to `COc1ccc(C(=O)Nc2ccccc2)cc1NC(=O)c1cccs1`, the AC50 under setting [1] was 1.78 µM [falling, full curve, poor fit]. In the case of `CC(C)CC(C(=O)Nc1oc(-c2ccco2)c(-c2ccco2)c1C#N)N1C(=O)c2ccccc2C1=O` (stereo not drawn), under setting [1], the AC50 is 4.47 µM [falling, full curve]. Regarding `CC1(c2ccccc2)NC(=S)N2C1NC(=S)N2c1ccccc1` (stereo not drawn), under setting [1], the concentration at half-maximal activity (AC50) is 3.66 µM [rising, single point].

In the case of `O=S(=O)(NCCN1CCOCC1)c1ccc(-c2ccc(S(=O)(=O)NCCN3CCOCC3)cc2)cc1`, under setting [1], the AC50 is 3.16 µM [rising, partial curve, poor fit].

On to `COC(=O)c1cc(NC(=O)/C=C/c2ccc3c(c2)OCO3)cc(C(=O)OC)c1`, for which, under setting [1], the AC50 was 6.31 µM [falling, single point]. Still for that read-out and setting: then `COc1ccccc1-c1nc(-c2ccc(C)nc2OC)no1`, with 20.6 µM [rising, single point]; and `CCN(Cc1ccc(OC)c(COC)c1)CC1CCCN(CCc2cccc(OC)c2)C1` (stereo not drawn), with 0.112 µM [rising, full curve, poor fit]. In the case of `COCCNC(=S)N/N=C(\C)c1ccc(Cl)c(Cl)c1`, the AC50 was 35.5 µM [falling, single point] under setting [1] and 22.4 µM [falling, single point] under setting [2]. On to `CC1CCN(C(=O)c2ccc3c(Cl)c4c(nc3c2)CCCC4)CC1`, for which the AC50 reads like this: under setting [1], 22.4 µM [falling, partial curve]; under setting [2], 12.6 µM [rising, single point]. Take `Cc1ccc(NC(=O)c2cc(NC(=O)c3ccccc3C(=O)O)ccc2N2CCCCC2)cc1`: the half-maximal activity concentration (AC50) under setting [1] was 35.5 µM [falling, single point]. Turning to `COc1cccc(C2=NOC(C(=O)NCc3cccs3)C2)c1` (stereo not drawn), the half-maximal activity concentration (AC50) under setting [1] is 7.08 µM [falling, partial curve].

Take `CCOc1ccccc1N/C=C(\C#N)c1nc2ccccc2n1C`: under setting [1], the AC50 was 32.6 µM [rising, partial curve, poor fit]. `CCCCn1c(NC(=O)C2CCCCC2)nc2ccccc21`: the AC50 under setting [1] was 6.51 µM [rising, partial curve, poor fit]. As for `COC(=O)C1(C(=O)OC)Sc2ccccc2C1=O`, the AC50 under setting [1] was 4.61 µM [rising, full curve, poor fit].

On to `C/C(=N\NC(=O)c1ccc(N(C)C)cc1)c1ccc(C)c(C)c1`, for which, under setting [1], the half-maximal activity concentration (AC50) is 14.6 µM [falling, partial curve, poor fit]. On the same count and under the same terms, then `COc1ccccc1OCCNC(=O)c1cc(C2CC2)nc2c1cnn2C(C)C`, with 25.9 µM [falling, single point]. As for `CN(CC(=O)Nc1ccc(F)cc1)C(=O)Cn1c(=O)oc2ccccc21`, under setting [1], the concentration at half-maximal activity (AC50) was 3.66 µM [falling, full curve]. On the same count and under the same terms, to `CCN(CC)C(=O)CSc1nc2ccccc2c(=O)n1-c1cccc(OC)c1` belongs 0.231 µM [rising, full curve, poor fit]; to `Cc1cc(=O)oc2cc(OCC(=O)Nc3cccc(S(=O)(=O)N(C)C)c3)ccc12`, 23.1 µM [rising, single point]. Still for that read-out and setting: then `Cc1cccc(N2CCN(C(=O)[C@H](C)N3C(=O)C4CC=CCC4C3=O)CC2)c1C` (stereo partly drawn), with 23.1 µM [rising, single point].
